Test results taken from PMC10397244.
No constants are given. Whether binding was seen depends on the method and setting. Binding seen in cells or lysates may run through a third protein. Some results given as binding are weak or reduced against the parent protein; the word gives no strength. Sequences can lack the tags named with a protein.

T1: BIK1-CLuc (Arabidopsis thaliana) (UniProt O48814)
T1 sequence: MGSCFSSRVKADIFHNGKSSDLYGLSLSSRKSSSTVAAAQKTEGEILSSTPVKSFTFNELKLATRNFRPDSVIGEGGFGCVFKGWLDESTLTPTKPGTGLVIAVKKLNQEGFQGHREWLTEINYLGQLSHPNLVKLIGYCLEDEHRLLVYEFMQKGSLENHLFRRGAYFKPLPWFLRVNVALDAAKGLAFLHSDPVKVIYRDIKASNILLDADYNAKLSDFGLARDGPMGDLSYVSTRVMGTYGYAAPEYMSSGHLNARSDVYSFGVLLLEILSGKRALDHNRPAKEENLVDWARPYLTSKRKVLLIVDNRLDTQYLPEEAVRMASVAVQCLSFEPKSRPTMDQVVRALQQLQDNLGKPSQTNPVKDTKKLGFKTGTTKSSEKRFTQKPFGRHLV

T2: BIK1 (expressed in Arabidopsis protoplasts or in vivo; tag of the experiment not told) (Arabidopsis thaliana) (UniProt O48814)
T2 sequence: T1 sequence

B1: RGLG1-NLuc (protein, UniProt Q9SS90 1-489)
chain: MGGGNSKEESSSPSSSSWASHQSYPQYGPDSYNYPPPPTYAPAPSPAPAPAPVPAPSPASSYGPQYSQEGYASQPNNPPPPTYAPAPSPASSYGHQYSQEGYASAASQPNYPPPPSQSQVADRKKFDRRYSKISDNYSSLLQVSEALGRAGLESSNLIVGIDFTKSNEWTGAKSFNRKSLHHLSNTPNPYEQAITIIGRTLAAFDEDNLIPCYGFGDASTHDQDVFSFYPEGRFCNGFEEVLARYREIVPQLKLAGPTSFAPIIEMAMTVVEQSSGQYHVLVIIADGQVTRSVDTEHGRLSPQEQKTVDAIVKASTLPLSIVLVGVGDGPWDMMQEFDDNIPARAFDNFQFVNFTEIMSKNKDQSRKETEFALSALMEIPPQYKATIELNLLGVRNGNIPQRIPLPPPVQSGSSFSSSRIPNFEPSVPPYPFESKQMSSADDIQLCPICLSNPKNMAFGCGHQTCCECGPDLKVCPICRAPIQTRIKLY
B2: ATL40-NLuc (protein, UniProt Q9SLC4 1-217)
chain: MSSNNKTDDSDDRSFWQNSTSYDASSKIFLVTTVSFSIIIIIVFVYYLYAKFVLHRRSAFQDLSFSVVSQPPKRGLDSLVIASLPTFVVGIKNDVAGTECAVCLSLLEEKDNARMLPNCKHVFHVSCVDTWLTTQSTCPVCRTEAEPSHPRLEPEPREGPVGDFAPPLDFAGVDNKTGGSSVSRLDSFRRILTRERSSNRRDHSRVDQDRELDIERQ
B3: ATL32-NLuc (protein, UniProt Q8W571 29-323)
chain: QSFSPSPPDLQTGHTPSKTTVFAVLVTLFFLTGLLSVYIRHCARSNPDSSTRYFRNRANDGSSRRGGLDNAVVESFPVFAYSSVKESKIGSKDLECAICLNELEDHETVRLLPICNHLFHIDCIDTWLYSHATCPVCRSNLTAKSNKPGDEDDGVPLAAMRDHVVVDIETVEVAKSHHRRLSSEISGKFPRSNSTGHSMDRFSDGTERFTLRLPDDVKMRLMAVKGRRLKRTRSFDVDLTAEHYCRSGEESSNTIGSGAKSGRVNWPDRWGLTLFVSKSNSGSVRSQKSNGEPLK
B4: ATL6-NLuc (protein, UniProt Q8RXX9 30-398)
chain: QSQPGPTNQPYNYGRLSPAMAVIVVILIAALFFMGFFSIYFRHCSGVPDAGVSPAGGARSRATVNAAARGLDVSVVETFPTFLYSDVKTQKLGKGELECAICLNEFEDDETLRLLPKCDHVFHPHCIDAWLEAHVTCPVCRANLAEQVAEGESVEPGGTEPDLELQQVVVNPEPVVTAPVPEQLVTSEVDSRRLPGVPVDLKRVKFSRSHTTGHSVVQPGECTERFTLRLPEDVRKRIMKDWKLNRTNSLLVLPRGGSSRRGKPIDRSRARSDRWLFRKTPSFLWRSRDDGSIRLGATGSVRASAVPNSTGSDSVRAGDRWAFLRNASFLWRNSSVHVPRGGVNKDGEGTSVKSTGASGSTSGSVRLPV
B5: ATL80-NLuc (protein, UniProt Q9LM69 1-197)
chain: MARLLFRLLVESNTPSPAIDNSTAALNSDLVVILAALLCALICVLGLIAVSRCVWLRRLAAGNRTVSGSQTQSPQPPVAAANKGLKKKVLQSLPKLTFSPESPESEKFAECAICLAEFSAGDELRVLPQCGHGFHVACIDTWLGSHSSCPSCRQILVVARCHKCGGLPGSSSSGLESEPEIEIRIKQGEDDPNSFLP
B6: ATL6 (expressed in Arabidopsis protoplasts; tag not told) (protein, UniProt Q8RXX9 30-398)
chain: B4 chain

Target: T1, BIK1-CLuc (Arabidopsis thaliana)
Test: split reporter; split-luciferase complementation; CLuc and NLuc fusions co-infiltrated into N. benthamiana leaves, luminescence two days later; with or without 5 uM flg22 for 30 min

binding, binds:
B1
B2
B3
B4
B5

Target: T2, BIK1 (expressed in Arabidopsis protoplasts or in vivo; tag of the experiment not told) (Arabidopsis thaliana)
Test: co-IP; Arabidopsis protoplasts co-transfected with pHBT plasmids, 10 h; with or without 2.5 uM flg22 for 30 min (some with MG132; Col-0, bak1 or rglg1 rglg2 protoplasts); IP with anti-FLAG antibodies and protein G agarose, 4 C; 10 mM HEPES pH 7.5, 100 mM NaCl, 0.5% Triton X-100

binding, binds:
B6
